Values quoted from earlier work as cited in patent publication US20140079634A1, “LABELED PE2I FORMULATION AND METHOD” (priority 2012, published 2014).
At least one compound was matched to its structure with a doubt left.

Settings: cited from earlier work

COC(=O)C1C(c2ccc([123I])cc2)CC2CCC1N2CCCF (stereo not drawn) [Ioflupane (^123I), [^123I] N-ω-fluoropropyl-2β-carbomethoxy-3β-(4-iodophenyl)nortropane]
decrease in radiochemical purity: 20%
